# Laboratory results published in the supplement of paper PMC6411743.
# Amino acid sequences for entries named in this document (tags omitted). A change or cut given only in a name is not applied to a line headed by its entry.
# UniProt Q9UDW1: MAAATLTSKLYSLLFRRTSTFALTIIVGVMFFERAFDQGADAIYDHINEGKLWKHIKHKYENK
# UniProt Q9NZR1: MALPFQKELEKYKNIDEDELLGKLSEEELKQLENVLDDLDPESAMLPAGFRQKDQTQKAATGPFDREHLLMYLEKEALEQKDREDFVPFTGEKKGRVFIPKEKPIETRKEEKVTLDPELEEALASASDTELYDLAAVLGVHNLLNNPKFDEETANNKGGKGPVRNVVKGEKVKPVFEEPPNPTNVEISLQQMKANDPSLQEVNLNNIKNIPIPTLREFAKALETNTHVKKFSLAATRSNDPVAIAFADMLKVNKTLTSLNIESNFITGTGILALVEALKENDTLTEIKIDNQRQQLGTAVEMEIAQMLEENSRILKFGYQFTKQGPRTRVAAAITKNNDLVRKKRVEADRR
# UniProt Q9UK58: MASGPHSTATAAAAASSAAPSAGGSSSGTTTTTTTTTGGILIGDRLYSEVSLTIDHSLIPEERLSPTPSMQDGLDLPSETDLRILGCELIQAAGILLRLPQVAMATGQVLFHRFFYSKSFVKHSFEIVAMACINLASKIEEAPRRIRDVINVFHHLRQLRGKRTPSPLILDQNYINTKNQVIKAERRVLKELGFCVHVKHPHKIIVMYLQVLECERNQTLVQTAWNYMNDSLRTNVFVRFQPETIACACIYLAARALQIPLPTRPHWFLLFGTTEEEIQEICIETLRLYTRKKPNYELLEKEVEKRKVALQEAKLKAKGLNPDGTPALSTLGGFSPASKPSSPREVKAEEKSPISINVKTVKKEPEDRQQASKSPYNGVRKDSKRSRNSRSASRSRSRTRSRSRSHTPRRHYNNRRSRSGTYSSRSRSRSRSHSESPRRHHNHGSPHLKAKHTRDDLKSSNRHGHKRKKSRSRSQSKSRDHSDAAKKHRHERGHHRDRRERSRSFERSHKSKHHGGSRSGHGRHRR
# UniProt Q9P253: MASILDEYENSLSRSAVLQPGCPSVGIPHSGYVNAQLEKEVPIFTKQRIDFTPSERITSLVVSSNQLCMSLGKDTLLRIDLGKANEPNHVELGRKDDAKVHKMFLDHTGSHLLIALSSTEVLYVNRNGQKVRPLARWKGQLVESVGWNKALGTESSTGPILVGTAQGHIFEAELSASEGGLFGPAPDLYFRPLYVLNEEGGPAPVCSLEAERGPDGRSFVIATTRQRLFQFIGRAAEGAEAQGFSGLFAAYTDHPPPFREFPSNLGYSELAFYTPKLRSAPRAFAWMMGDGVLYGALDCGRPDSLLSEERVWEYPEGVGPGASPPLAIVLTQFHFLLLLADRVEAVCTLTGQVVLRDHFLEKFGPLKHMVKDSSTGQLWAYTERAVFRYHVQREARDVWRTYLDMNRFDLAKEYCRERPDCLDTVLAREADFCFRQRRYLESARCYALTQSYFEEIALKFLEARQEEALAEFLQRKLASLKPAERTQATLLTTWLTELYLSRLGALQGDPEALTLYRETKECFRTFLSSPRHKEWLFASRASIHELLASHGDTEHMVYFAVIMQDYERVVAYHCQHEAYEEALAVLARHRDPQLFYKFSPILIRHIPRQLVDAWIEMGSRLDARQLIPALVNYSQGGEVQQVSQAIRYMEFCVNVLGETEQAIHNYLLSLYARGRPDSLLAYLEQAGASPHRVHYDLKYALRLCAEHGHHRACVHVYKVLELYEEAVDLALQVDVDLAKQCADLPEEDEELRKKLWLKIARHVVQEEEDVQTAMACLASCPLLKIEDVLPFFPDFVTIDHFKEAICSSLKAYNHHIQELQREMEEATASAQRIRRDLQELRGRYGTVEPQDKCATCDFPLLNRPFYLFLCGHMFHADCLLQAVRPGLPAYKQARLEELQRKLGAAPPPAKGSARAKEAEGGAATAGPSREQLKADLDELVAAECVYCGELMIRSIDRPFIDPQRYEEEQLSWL
# ± gives the standard deviation of the averaged measurements. Some of the results follow.
# Compound: Nc1nc2c(ncn2[C@@H]2O[C@H](COP(=O)(O)OP(=O)(O)OP(=O)(O)O)[C@@H](O)[C@H]2O)c(=O)[nH]1 [guanosine triphosphate]
# Test: NP40-soluble protein abundance relative to vehicle (solubility fold change) (ratio); higher = more soluble protein in presence of GTP
# Procedure: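 Solubility proteome profiling in Jurkat crude lysate. Lysate was treated with Mg-GTP (0.1-10 mM) for 10 min at room temperature and 3 min at 37 °C, then solubilised with 0.8% NP40 and benzonase, followed by ultracentrifugation. Proteins were quantified by TMT10 LC-MS/MS; the value is the NP40-soluble abundance relative to the NP40-processed vehicle, from 3 independent experiments.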
Target,NP40-soluble protein abundance (concentration: 0.1mM),NP40-soluble protein abundance (concentration: 0.5mM),NP40-soluble protein abundance (concentration: 1mM),NP40-soluble protein abundance (concentration: 2mM),NP40-soluble protein abundance (concentration: 4mM),NP40-soluble protein abundance (concentration: 6mM),NP40-soluble protein abundance (concentration: 8mM),NP40-soluble protein abundance (concentration: 10mM)
UniProt Q9UDW1,0.895 ± 0.18,0.804 ± 0.062,0.864 ± 0.065,0.919 ± 0.1,0.908 ± 0.051,0.824 ± 0.047,0.735 ± 0.042,0.75174 ± 0.00021
UniProt Q9NVI7-2,1.07 ± 0.062,1.16 ± 0.085,1.34 ± 0.083,1.56 ± 0.18,1.79 ± 0.32,1.9 ± 0.29,2.04 ± 0.29,2.11 ± 0.29
TMOD2 (UniProt Q9NZR1),0.918 ± 0.13,0.867 ± 0.091,1.1 ± 0.13,1.07 ± 0.12,1.06 ± 0.13,1.09 ± 0.088,1.06 ± 0.1,1.13 ± 0.21
UniProt Q9UK58 and related entries,1.06 ± 0.09,1.08 ± 0.053,1.05 ± 0.11,1.07 ± 0.099,1.04 ± 0.093,0.9 ± 0.1,0.915 ± 0.054,0.856 ± 0.092
VPS18 (UniProt Q9P253),1.09 ± 0.028,1.13 ± 0.055,1.05 ± 0.039,1.06 ± 0.08,1.1 ± 0.059,1.05 ± 0.05,1.0269 ± 0.00089,1.03 ± 0.065
